# Some of the results follow.
# B1: GS7807I-bvu-563-22-563 (Bacteroides vulgatus) (protein)
# chain: IFSSCTDDFEKLNTSNIQVDPADLPFAAQCTEPMTYCYPPQQNMFQFWTNLTIDLYGGYFMTPNGNFTNGDMGENRGHSGGMYENYYLHIFNNTRRIIAQCDASGERGLSGVMRIVQAYGTLMTTDAYGPIPYSSILSGENEVYFEFDSQKDLYKAMLEDLSTAITDISAMGADEIAKLKSFDCWCNGDKDLWVKIANTMKLRMALRLSKRETEAGNAGMNLKAIATEAAQNTLATVNKDILIDKSLENEMWLMFNWGDCGFNANLVTIMSGTKDPRQPLYMTLNTGDIKNEAGTTTVAANSQYLGIRFASGLPAKPNSWGNFSGWIQGNNGSSYSMPLPIMKAAEAYFLLAEAKLRWDIGSESVKNLYENGIRVSMTNELAYRGAYAGIKEYPEGAVDAYINGTSTQIDYTDPIKAELSTPAVNKLSVKWDESASNEEKLERIITQKWLALFPLSTEGWAEQRRTGYPRFFPAFVNESNGAVNTEEGVRRVIYSSQAYDANAKGVEGGIKLLDEENSSKFGISGDKGGTHLWWDNADKGNF
# Experiments:
# Assay in all cases: glycan array binding signal (z-score within array); higher = stronger binding
# Conditions in all cases: glycan notation: IUPAC condensed, linker removed
# [1] = target: GlcNAc(b1-3)Gal(b1-4)GlcNAc(b1-3)Gal(b1-4)GlcNAc(b1-3)GalNAc
# Method in brief: (§1)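 Columns mapping to the same glycan were averaged after glycan names were converted to IUPAC-condensed notation. The data come from 3228 arrays in the Consortium for Functional Glycomics database, limited to those with an available protein sequence. Binding is reported as a within-array Z-score averaged across arrays of one protein sequence and across linkers.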
# [2] = target: GlcNAc(b1-3)Gal(b1-4)GlcNAc(b1-3)GalNAc
# Method in brief: as §1
# [3] = target: GlcNAc(b1-3)Gal(b1-4)GlcNAc(b1-3)[GlcNAc(b1-3)Gal(b1-4)GlcNAc(b1-3)]GalNAc
# Method in brief: as §1
# [4] = target: GlcNAc(b1-3)Gal(b1-4)GlcNAc(b1-6)[Gal(b1-3)]GalNAc
# Method in brief: as §1
# [5] = target: GlcNAc(b1-3)Gal(b1-4)GlcNAc(b1-6)[GlcNAc(b1-3)Gal(b1-3)]GalNAc
# Method in brief: as §1
# [6] = target: GlcNAc(b1-3)Gal(b1-4)GlcNAc(b1-6)[GlcNAc(b1-3)]Gal(b1-4)GlcNAc
# Method in brief: as §1
# [7] = target: GlcNAc(b1-3)GalNAc
# Method in brief: as §1
# [8] = target: GlcNAc(b1-3)Man
# Method in brief: as §1
# [9] = target: GlcNAc(b1-3)[GlcNAc(b1-4)][GlcNAc(b1-6)]GlcNAc
# Method in brief: as §1
# [10] = target: GlcNAc(b1-3)[GlcNAc(b1-6)]Gal(b1-4)GlcNAc
# Method in brief: as §1
# [11] = target: GlcNAc(b1-3)[GlcNAc(b1-6)]GalNAc
# Method in brief: as §1
# [12] = target: GlcNAc(b1-4)Gal(b1-4)GlcNAc
# Method in brief: as §1
# [13] = target: GlcNAc(b1-4)GlcNAc
# Method in brief: as §1
# [14] = target: GlcNAc(b1-4)GlcNAc(b1-4)GlcNAc
# Method in brief: as §1
# [15] = target: GlcNAc(b1-4)GlcNAc(b1-4)GlcNAc(b1-4)GlcNAc(b1-4)GlcNAc
# Method in brief: as §1
# [16] = target: GlcNAc(b1-4)GlcNAc(b1-4)GlcNAc(b1-4)GlcNAc(b1-4)GlcNAc(b1-4)GlcNAc
# Method in brief: as §1
# [17] = target: GlcNAc(b1-4)[GlcNAc(b1-6)]GalNAc
# Method in brief: as §1
# [18] = target: GlcNAc(b1-6)Gal(b1-4)GlcNAc
# Method in brief: as §1
# [19] = target: GlcNAc(b1-6)GalNAc
# Method in brief: as §1
# [20] = target: GlcNAc6S(b1-3)Gal(b1-4)GlcNAc
# Method in brief: as §1
# [21] = target: Kdn(a2-3)Gal(b1-3)GalNAc
# Method in brief: as §1
# [22] = target: Kdn(a2-3)Gal(b1-3)GlcNAc
# Method in brief: as §1
# [23] = target: Kdn(a2-3)Gal(b1-4)Glc
# Method in brief: as §1
# [24] = target: Kdn(a2-3)Gal(b1-4)GlcNAc
# Method in brief: as §1
# [25] = target: Kdn(a2-3)Gal(b1-4)[Fuc(a1-3)]GlcNAc
# Method in brief: as §1
# [26] = target: Kdn(a2-6)Gal(b1-4)GlcNAc
# Method in brief: as §1
# [27] = target: Man(a1-2)Man(a1-2)Man(a1-3)Man
# Method in brief: as §1
# [28] = target: Man(a1-2)Man(a1-2)Man(a1-6)[Man(a1-3)]Man
# Method in brief: as §1
# [29] = target: Man(a1-2)Man(a1-3)Man
# Method in brief: as §1
# [30] = target: Man(a1-2)Man(a1-3)[Man(a1-2)Man(a1-6)]Man
# Method in brief: as §1
# [31] = target: Man(a1-2)Man(a1-3)[Man(a1-2)Man(a1-6)]Man(a1-6)[Man(a1-2)Man(a1-2)Man(a1-3)]Man
# Method in brief: as §1
# [32] = target: Man(a1-2)Man(a1-3)[Man(a1-2)Man(a1-6)]Man(a1-6)[Man(a1-2)Man(a1-2)Man(a1-3)]Man(b1-4)GlcNAc(b1-4)GlcNAc
# Method in brief: as §1
# [33] = target: Man(a1-2)Man(a1-3)[Man(a1-6)]Man(a1-6)[Man(a1-2)Man(a1-3)]Man(b1-4)GlcNAc(b1-4)GlcNAc
# Method in brief: as §1
# [34] = target: Man(a1-2)Man(a1-6)[Man(a1-3)]Man(a1-6)[Man(a1-2)Man(a1-2)Man(a1-3)]Man
# Method in brief: as §1
# [35] = target: Man(a1-2)Man(a1-6)[Man(a1-3)]Man(a1-6)[Man(a1-2)Man(a1-2)Man(a1-3)]Man(b1-4)GlcNAc(b1-4)GlcNAc
# Method in brief: as §1
# [36] = target: Man(a1-3)[Man(a1-6)]Man
# Method in brief: as §1
# [37] = target: Man(a1-3)[Man(a1-6)]Man(a1-6)[Man(a1-2)Man(a1-3)]Man(b1-4)GlcNAc(b1-4)GlcNAc
# Method in brief: as §1
# [38] = target: Man(a1-3)[Man(a1-6)]Man(a1-6)[Man(a1-3)]Man
# Method in brief: as §1
# [39] = target: Man(a1-3)[Man(a1-6)]Man(a1-6)[Man(a1-3)]Man(b1-4)GlcNAc(b1-4)GlcNAc
# Method in brief: as §1
# [40] = target: Man(a1-3)[Man(a1-6)]Man(b1-4)GlcNAc(b1-4)GlcNAc
# Method in brief: as §1
# [41] = target: Man(a1-3)[Man(a1-6)]Man(b1-4)GlcNAc(b1-4)[Fuc(a1-6)]GlcNAc
# Method in brief: as §1
# [42] = target: Man(a1-6)Man
# Method in brief: as §1
# [43] = target: Man(b1-4)GlcNAc
# Method in brief: as §1
# [44] = target: MurNAc(b1-4)GlcNAc
# Method in brief: as §1
# [45] = target: Neu5Ac(a2-3)Gal
# Method in brief: as §1
# [46] = target: Neu5Ac(a2-3)Gal(b1-3)GalNAc
# Method in brief: as §1
# [47] = target: Neu5Ac(a2-3)Gal(b1-3)GalNAc(b1-3)Gal(a1-4)Gal(b1-4)Glc
# Method in brief: as §1
# [48] = target: Neu5Ac(a2-3)Gal(b1-3)GalNAc(b1-4)[Neu5Ac(a2-3)]Gal(b1-4)Glc
# Method in brief: as §1
# [49] = target: Neu5Ac(a2-3)Gal(b1-3)GalNAc(b1-4)[Neu5Ac(a2-8)Neu5Ac(a2-3)]Gal(b1-4)Glc
# Method in brief: as §1
# [50] = target: Neu5Ac(a2-3)Gal(b1-3)GalNAc6S
# Method in brief: as §1
# [51] = target: Neu5Ac(a2-3)Gal(b1-3)GlcNAc
# Method in brief: as §1
# [52] = target: Neu5Ac(a2-3)Gal(b1-3)GlcNAc(b1-2)Man
# Method in brief: as §1
# [53] = target: Neu5Ac(a2-3)Gal(b1-3)GlcNAc(b1-2)Man(a1-3)[GlcNAc(b1-4)][Neu5Ac(a2-3)Gal(b1-3)GlcNAc(b1-2)Man(a1-6)]Man(b1-4)GlcNAc(b1-4)GlcNAc
# Method in brief: as §1
# [54] = target: Neu5Ac(a2-3)Gal(b1-3)GlcNAc(b1-2)Man(a1-3)[Neu5Ac(a2-3)Gal(b1-3)GlcNAc(b1-2)Man(a1-6)]Man(b1-4)GlcNAc(b1-4)GlcNAc
# Method in brief: as §1
# [55] = target: Neu5Ac(a2-3)Gal(b1-3)GlcNAc(b1-3)Gal(b1-3)GlcNAc
# Method in brief: as §1
# [56] = target: Neu5Ac(a2-3)Gal(b1-3)GlcNAc(b1-3)Gal(b1-4)GlcNAc
# Method in brief: as §1
# [57] = target: Neu5Ac(a2-3)Gal(b1-3)GlcNAc(b1-3)GalNAc
# Method in brief: as §1
# [58] = target: Neu5Ac(a2-3)Gal(b1-3)GlcNAc(b1-4)Gal(b1-4)Glc
# Method in brief: as §1
# [59] = target: Neu5Ac(a2-3)Gal(b1-3)GlcNAc(b1-6)GalNAc
# Method in brief: as §1
# [60] = target: Neu5Ac(a2-3)Gal(b1-3)GlcNAc6S
# Method in brief: as §1
binder,measurement,setting,value
B1,glycan array binding signal (z-score),[1],-0.202
same,glycan array binding signal (z-score),[2],0.129
same,glycan array binding signal (z-score),[3],0.595
same,glycan array binding signal (z-score),[4],-0.16
same,glycan array binding signal (z-score),[5],0.348
same,glycan array binding signal (z-score),[6],-0.101
same,glycan array binding signal (z-score),[7],-0.124
same,glycan array binding signal (z-score),[8],-0.754
same,glycan array binding signal (z-score),[9],-0.373
same,glycan array binding signal (z-score),[10],-0.01
same,glycan array binding signal (z-score),[11],-0.559
same,glycan array binding signal (z-score),[12],0.003
same,glycan array binding signal (z-score),[13],-0.709
same,glycan array binding signal (z-score),[14],0.292
same,glycan array binding signal (z-score),[15],-0.951
same,glycan array binding signal (z-score),[16],-0.905
same,glycan array binding signal (z-score),[17],0.44
same,glycan array binding signal (z-score),[18],-0.053
same,glycan array binding signal (z-score),[19],-0.136
same,glycan array binding signal (z-score),[20],-0.815
same,glycan array binding signal (z-score),[21],-0.021
same,glycan array binding signal (z-score),[22],0.242
same,glycan array binding signal (z-score),[23],-0.657
same,glycan array binding signal (z-score),[24],0.192
same,glycan array binding signal (z-score),[25],-0.492
same,glycan array binding signal (z-score),[26],-0.077
same,glycan array binding signal (z-score),[27],0.28
same,glycan array binding signal (z-score),[28],-0.59
same,glycan array binding signal (z-score),[29],1.83
same,glycan array binding signal (z-score),[30],-0.421
same,glycan array binding signal (z-score),[31],0.613
same,glycan array binding signal (z-score),[32],0.646
same,glycan array binding signal (z-score),[33],-1.19
same,glycan array binding signal (z-score),[34],-0.237
same,glycan array binding signal (z-score),[35],-0.188
same,glycan array binding signal (z-score),[36],-0.159
same,glycan array binding signal (z-score),[37],-0.164
same,glycan array binding signal (z-score),[38],0.672
same,glycan array binding signal (z-score),[39],0.24
same,glycan array binding signal (z-score),[40],-0.233
same,glycan array binding signal (z-score),[41],0.226
same,glycan array binding signal (z-score),[42],-0.623
same,glycan array binding signal (z-score),[43],-1.7
same,glycan array binding signal (z-score),[44],-0.797
same,glycan array binding signal (z-score),[45],0.778
same,glycan array binding signal (z-score),[46],0.162
same,glycan array binding signal (z-score),[47],-0.082
same,glycan array binding signal (z-score),[48],-1.07
same,glycan array binding signal (z-score),[49],-0.767
same,glycan array binding signal (z-score),[50],-0.22
same,glycan array binding signal (z-score),[51],0.76
same,glycan array binding signal (z-score),[52],-0.412
same,glycan array binding signal (z-score),[53],0.131
same,glycan array binding signal (z-score),[54],0.568
same,glycan array binding signal (z-score),[55],-0.718
same,glycan array binding signal (z-score),[56],-0.15
same,glycan array binding signal (z-score),[57],-1.07
same,glycan array binding signal (z-score),[58],-0.293
same,glycan array binding signal (z-score),[59],-1.17
same,glycan array binding signal (z-score),[60],0.987

# For convenience, part of the list above:
binder,measurement,setting,value
B1,glycan array binding signal (z-score),[47],-0.082
same,glycan array binding signal (z-score),[48],-1.07
same,glycan array binding signal (z-score),[49],-0.767

# Part of the list above, tab-delimited.
binder	measurement	setting	value
B1	glycan array binding signal (z-score)	[13]	-0.709
same	glycan array binding signal (z-score)	[14]	0.292
